Measured values as given in patent publication US20230167198A1 (University of California, published 2023).
These are yes or no findings as the source states them, for the method shown. Some binding calls cover weakened binding; strength is not graded here.

Chains of the proteins cited; added tags and fusions are not shown. Lines headed by an entry give the natural chain unless they say otherwise; changes in a name come on top. A line that says so, or that is headed by a name, gives the form on record, which may keep a tag or linker. Residues count along the entry.
UniProt P08519: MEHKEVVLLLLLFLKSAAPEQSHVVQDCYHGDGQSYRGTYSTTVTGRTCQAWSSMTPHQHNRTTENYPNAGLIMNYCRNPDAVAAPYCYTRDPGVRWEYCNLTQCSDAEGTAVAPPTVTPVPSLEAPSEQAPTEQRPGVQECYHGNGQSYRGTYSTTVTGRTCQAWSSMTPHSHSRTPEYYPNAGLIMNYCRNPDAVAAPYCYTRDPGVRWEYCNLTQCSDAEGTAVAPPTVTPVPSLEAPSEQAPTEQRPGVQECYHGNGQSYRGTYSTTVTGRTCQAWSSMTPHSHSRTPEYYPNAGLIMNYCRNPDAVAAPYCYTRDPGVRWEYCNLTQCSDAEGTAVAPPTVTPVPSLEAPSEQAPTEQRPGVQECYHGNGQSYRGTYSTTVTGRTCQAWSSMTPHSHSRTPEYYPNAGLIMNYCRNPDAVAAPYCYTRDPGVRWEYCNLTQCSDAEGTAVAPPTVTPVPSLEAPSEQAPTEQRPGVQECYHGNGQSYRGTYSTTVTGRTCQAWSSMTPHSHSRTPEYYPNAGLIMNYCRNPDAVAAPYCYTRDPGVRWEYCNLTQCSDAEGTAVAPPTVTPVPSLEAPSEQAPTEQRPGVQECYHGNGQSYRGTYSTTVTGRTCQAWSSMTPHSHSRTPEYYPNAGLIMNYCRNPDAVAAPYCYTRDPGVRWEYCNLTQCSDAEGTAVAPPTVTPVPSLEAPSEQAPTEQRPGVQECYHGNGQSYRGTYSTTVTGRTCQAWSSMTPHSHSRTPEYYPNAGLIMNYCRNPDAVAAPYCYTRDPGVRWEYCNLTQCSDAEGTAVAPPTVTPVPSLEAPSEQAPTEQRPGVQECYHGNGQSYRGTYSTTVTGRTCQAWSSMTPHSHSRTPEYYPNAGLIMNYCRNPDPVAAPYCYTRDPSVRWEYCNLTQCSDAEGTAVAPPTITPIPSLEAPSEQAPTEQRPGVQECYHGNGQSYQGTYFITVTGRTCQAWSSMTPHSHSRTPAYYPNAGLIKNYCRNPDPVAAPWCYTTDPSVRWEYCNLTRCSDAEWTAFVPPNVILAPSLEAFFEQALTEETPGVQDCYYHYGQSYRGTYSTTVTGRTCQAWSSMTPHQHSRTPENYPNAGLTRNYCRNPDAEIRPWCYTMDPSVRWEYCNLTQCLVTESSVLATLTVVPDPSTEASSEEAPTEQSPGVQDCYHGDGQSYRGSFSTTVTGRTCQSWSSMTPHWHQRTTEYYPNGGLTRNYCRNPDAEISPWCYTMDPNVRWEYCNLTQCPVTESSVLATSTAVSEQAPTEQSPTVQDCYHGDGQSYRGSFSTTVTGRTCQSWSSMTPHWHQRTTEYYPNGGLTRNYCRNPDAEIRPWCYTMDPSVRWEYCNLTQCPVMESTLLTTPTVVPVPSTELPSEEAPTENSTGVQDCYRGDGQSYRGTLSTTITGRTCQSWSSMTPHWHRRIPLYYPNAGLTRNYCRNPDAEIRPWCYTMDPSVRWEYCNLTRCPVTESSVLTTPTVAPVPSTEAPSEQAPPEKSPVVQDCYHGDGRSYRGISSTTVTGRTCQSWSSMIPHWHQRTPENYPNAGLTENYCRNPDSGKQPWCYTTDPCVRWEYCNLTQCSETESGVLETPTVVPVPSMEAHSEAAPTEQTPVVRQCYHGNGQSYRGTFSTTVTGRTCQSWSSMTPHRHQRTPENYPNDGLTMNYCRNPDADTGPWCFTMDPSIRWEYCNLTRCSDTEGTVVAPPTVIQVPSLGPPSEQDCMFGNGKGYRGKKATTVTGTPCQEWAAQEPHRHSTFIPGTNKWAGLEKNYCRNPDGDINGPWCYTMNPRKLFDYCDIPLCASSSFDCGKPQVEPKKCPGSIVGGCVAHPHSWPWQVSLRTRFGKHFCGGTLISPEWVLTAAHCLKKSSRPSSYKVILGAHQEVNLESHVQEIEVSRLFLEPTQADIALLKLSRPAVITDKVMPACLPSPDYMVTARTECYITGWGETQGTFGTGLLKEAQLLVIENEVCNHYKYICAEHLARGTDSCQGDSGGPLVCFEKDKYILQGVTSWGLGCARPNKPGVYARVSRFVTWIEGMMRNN
KIV6-P recombinant apolipoprotein(a) construct: residues 1157-2040 of P08519
KIV7-P recombinant apolipoprotein(a) construct: residues 1263-2040 of P08519
KIV8-P recombinant apolipoprotein(a) construct: residues 1377-2040 of P08519
KIV9-P recombinant apolipoprotein(a) construct: residues 1491-2040 of P08519
17K apolipoprotein(a) construct without the protease domain (P08519, form named): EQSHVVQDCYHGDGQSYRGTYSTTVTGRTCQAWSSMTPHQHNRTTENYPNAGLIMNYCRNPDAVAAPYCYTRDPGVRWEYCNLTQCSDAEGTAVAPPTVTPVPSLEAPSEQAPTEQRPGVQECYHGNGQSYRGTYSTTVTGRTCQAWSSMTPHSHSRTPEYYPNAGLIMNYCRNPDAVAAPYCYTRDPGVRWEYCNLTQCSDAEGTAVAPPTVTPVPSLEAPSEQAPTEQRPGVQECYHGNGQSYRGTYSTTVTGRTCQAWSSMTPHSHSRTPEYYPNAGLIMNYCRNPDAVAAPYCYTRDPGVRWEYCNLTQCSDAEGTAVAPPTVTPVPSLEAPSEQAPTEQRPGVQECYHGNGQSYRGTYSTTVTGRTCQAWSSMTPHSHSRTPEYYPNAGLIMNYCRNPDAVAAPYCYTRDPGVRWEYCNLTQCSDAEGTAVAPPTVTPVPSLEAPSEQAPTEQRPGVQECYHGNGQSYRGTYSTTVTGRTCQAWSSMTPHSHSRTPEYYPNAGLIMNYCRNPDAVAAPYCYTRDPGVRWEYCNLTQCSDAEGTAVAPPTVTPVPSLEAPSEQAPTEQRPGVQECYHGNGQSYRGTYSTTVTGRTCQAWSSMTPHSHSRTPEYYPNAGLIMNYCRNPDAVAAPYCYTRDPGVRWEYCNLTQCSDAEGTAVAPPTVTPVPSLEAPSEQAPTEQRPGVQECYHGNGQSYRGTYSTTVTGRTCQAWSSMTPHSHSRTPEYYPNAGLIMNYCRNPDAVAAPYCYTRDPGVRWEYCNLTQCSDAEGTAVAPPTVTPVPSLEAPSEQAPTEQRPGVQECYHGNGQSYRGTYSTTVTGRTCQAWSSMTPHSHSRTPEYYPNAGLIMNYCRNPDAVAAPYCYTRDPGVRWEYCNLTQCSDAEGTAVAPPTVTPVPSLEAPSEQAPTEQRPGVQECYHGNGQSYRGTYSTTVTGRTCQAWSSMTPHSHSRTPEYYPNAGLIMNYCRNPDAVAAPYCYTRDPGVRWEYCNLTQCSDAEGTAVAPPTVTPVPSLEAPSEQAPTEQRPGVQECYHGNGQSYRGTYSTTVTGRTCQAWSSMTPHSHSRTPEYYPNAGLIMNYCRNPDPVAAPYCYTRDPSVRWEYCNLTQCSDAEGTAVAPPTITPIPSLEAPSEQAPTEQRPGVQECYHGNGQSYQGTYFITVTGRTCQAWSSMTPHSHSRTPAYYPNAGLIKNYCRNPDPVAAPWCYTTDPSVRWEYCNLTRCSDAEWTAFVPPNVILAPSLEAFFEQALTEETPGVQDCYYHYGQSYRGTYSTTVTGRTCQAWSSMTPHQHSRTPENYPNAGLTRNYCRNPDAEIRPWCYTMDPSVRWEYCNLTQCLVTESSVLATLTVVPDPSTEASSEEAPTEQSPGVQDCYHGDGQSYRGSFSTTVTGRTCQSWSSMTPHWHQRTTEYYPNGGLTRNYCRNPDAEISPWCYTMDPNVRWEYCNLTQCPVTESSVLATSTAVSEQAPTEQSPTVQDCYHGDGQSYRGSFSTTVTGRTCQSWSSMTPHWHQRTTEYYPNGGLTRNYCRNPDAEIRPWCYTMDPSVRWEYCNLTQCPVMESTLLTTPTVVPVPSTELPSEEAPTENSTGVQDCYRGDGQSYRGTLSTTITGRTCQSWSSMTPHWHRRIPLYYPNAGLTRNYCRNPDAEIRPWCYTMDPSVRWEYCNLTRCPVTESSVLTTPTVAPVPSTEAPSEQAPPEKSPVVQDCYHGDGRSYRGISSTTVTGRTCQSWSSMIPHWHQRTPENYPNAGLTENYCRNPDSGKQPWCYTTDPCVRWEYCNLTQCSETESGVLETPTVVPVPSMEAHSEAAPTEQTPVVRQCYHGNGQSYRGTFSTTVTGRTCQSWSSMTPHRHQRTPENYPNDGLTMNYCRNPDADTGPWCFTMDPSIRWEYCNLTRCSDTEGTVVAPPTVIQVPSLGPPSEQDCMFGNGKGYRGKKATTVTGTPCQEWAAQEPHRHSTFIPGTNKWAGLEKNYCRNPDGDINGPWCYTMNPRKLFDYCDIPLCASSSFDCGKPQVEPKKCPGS
17K apolipoprotein(a) construct without KV (P08519, form named): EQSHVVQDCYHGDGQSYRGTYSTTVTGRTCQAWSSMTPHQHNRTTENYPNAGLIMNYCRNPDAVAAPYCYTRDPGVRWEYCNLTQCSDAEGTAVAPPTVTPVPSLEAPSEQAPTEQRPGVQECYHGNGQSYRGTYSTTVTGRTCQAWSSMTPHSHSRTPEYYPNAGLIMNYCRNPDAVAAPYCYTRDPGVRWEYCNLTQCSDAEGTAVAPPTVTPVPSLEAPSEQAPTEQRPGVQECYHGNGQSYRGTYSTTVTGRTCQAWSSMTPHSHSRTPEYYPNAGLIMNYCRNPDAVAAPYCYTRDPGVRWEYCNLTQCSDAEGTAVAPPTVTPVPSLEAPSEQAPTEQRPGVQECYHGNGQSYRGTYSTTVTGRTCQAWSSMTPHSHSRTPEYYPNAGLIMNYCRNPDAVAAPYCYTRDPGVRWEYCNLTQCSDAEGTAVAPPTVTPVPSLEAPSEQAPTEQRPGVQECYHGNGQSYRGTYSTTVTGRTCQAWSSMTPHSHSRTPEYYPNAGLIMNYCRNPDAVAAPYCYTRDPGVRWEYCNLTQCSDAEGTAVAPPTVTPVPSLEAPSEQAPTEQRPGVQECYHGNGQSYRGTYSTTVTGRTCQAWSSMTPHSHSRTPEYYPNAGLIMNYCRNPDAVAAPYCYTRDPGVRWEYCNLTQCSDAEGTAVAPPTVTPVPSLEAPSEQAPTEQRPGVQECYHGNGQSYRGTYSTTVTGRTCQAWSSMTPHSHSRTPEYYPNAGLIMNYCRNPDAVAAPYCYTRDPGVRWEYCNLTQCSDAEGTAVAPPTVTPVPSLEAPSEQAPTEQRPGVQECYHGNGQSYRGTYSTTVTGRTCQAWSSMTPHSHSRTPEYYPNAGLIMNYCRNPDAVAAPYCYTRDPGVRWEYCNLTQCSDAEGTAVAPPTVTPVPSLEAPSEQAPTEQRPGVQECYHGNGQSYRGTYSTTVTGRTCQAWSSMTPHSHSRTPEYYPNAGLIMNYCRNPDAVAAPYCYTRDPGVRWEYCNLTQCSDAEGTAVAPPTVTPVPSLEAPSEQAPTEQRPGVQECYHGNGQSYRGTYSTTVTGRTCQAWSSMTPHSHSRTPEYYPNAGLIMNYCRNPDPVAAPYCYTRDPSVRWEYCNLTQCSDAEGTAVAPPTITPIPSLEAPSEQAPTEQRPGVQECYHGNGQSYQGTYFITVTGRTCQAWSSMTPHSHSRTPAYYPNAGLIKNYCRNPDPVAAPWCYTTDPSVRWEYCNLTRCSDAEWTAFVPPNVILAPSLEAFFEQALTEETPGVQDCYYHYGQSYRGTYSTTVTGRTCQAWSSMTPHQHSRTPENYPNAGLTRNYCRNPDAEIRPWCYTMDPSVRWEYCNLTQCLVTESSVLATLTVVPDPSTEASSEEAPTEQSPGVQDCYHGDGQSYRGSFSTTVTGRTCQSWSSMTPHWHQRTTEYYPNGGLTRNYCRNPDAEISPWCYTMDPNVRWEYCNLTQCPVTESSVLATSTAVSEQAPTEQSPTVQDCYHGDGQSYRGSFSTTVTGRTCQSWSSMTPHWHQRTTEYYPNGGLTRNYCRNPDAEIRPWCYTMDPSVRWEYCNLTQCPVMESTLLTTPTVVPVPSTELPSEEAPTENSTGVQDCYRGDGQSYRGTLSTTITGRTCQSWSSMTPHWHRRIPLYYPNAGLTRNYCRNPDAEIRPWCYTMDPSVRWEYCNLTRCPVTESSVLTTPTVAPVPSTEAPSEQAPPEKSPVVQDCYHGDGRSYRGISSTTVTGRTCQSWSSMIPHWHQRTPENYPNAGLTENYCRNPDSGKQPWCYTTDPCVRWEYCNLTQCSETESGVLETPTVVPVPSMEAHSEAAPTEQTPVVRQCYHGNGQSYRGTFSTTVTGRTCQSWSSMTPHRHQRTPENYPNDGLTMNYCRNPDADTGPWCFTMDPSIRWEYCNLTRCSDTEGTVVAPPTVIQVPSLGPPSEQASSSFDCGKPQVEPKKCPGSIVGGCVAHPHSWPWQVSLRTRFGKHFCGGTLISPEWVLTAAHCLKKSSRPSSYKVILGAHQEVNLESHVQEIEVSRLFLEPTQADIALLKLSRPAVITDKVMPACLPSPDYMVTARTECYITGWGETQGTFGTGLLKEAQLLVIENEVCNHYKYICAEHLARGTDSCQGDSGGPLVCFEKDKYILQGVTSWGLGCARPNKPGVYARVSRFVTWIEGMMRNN

Columns and labels:
[1] = biological target: T1, Lipoprotein(a) purified from a single donor (human) (UniProt P08519+P04114); assay: ELISA of hybridoma subclones on coated Lp(a)
[2] = biological target: 17K apolipoprotein(a) construct without the protease domain (human) (UniProt P08519); assay: dot-blot and reducing western blot
[3] = biological target: KIV9-P recombinant apolipoprotein(a) construct (UniProt P08519); assay: dot-blot and reducing western blot
[4] = biological target: KIV6-P recombinant apolipoprotein(a) construct (UniProt P08519); assay: dot-blot and reducing western blot
[5] = biological target: KIV7-P recombinant apolipoprotein(a) construct (UniProt P08519); assay: dot-blot and reducing western blot
[6] = biological target: T1, Lipoprotein(a) purified from a single donor (human); assay: dot-blot and reducing western blot
[7] = biological target: 17K apolipoprotein(a) construct without KV (human) (UniProt P08519); assay: dot-blot and reducing western blot
[8] = biological target: KIV8-P recombinant apolipoprotein(a) construct (UniProt P08519); assay: dot-blot and reducing western blot
[9] = biological target: 17K apolipoprotein(a) construct without the protease domain (human) (UniProt P08519); assay: dot-blot, pattern duplicated by western blot
[10] = biological target: KIV9-P recombinant apolipoprotein(a) construct (UniProt P08519); assay: dot-blot, pattern duplicated by western blot
[11] = biological target: KIV6-P recombinant apolipoprotein(a) construct (UniProt P08519); assay: dot-blot, pattern duplicated by western blot
[12] = biological target: KIV7-P recombinant apolipoprotein(a) construct (UniProt P08519); assay: dot-blot, pattern duplicated by western blot
[13] = biological target: 17K apolipoprotein(a) construct without KV (human) (UniProt P08519); assay: dot-blot, pattern duplicated by western blot
[14] = biological target: KIV8-P recombinant apolipoprotein(a) construct (UniProt P08519); assay: dot-blot, pattern duplicated by western blot
[15] = biological target: T1, Lipoprotein(a) purified from a single donor (human); assay: direct chemiluminescent ELISA, purified antibody on Lp(a) coated at 5 ug/ml
[16] = biological target: T1, Lipoprotein(a) purified from a single donor (human); assay: ELISA of hybridoma conditioned media on coated Lp(a)

Measured: binding

B1: LPA-KIV9 murine monoclonal antibody (antibody, IgG1, V domains shown)
VH: QVQLQQSGAELVRPGASVKLSCKALGYTFTDYELHWLKQTPVHGLEWIGAVHPGSGGSAYNQNFKDKATLTADKSSSTAYMELSSLTSEDSAVYYCTREGPFYWGQGTTLTVSS
VL: DVVMTQTPLSLPVSLGDQASISCRSSQSLVHSNGNAYLHWYLQKPGQSPKLLIYKVSNRFSGVPDRFSGSGSGTNFTLKISRVEAEDLGIYFCSQSTHVPLTFGAGTKLELK
notes: constant regions are not; also called Colony #1; Colony 1
binds: all assays above
